Source: PubChem BioAssay AID2685 (National Center for Advancing Translational Sciences (NCATS), 2010)
Screen size: about 320,000 compounds; about 2,100 (0.66%) were called active. Inconclusive means that the source gave no clear call. Such entries were picked first, then a sample of the others. Calls come from the whole dose curve; as a rule, active = well fitted inhibition curve with a large enough effect in the signal ratio, with a control signal flat (not every such curve was filed as active); inconclusive = small, poorly fitted or top-dose-only effect, or effect the other way, or a change in a side signal; inactive = flat fitted curve, though single readings scatter; the % refers to the signal ratio. A potency beside an inconclusive call is a rough fit, not a confirmed value.

experiment: qHTS Assay for Lipid Storage Modulators in Drosophila S3 Cells; details: BODIPY lipid droplet fluorescence, 18-24 h, cells fed with added oleic acid; lipid storage change, negative = inhibition: at 46.1 µM (top of the series) unless noted
How it was run: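 Drosophila S3 cells loaded with oleic acid (400 uM, as added) and compounds at several concentrations; lipid droplets imaged by 488-nm laser-scanning cytometry, 500–530 nm intensity and object ratio to cell channel. Percent activity normalized to 20 uM Triacsin C.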
% is set by controls: 0 for no effect and ±100 for the full control effect; potency is the fitted concentration of half-maximal effect.

| SMILES | lipid storage change, negative = inhibition | Potency |
| --- | --- | --- |
| CC(C)CN(C(=O)CN1C(=O)NC(c2ccccc2)(c2ccccc2)C1=O)C1CCS(=O)(=O)C1 (centres undefined) | inconclusive: -6.77% |  |
| CCOc1ccc(-c2nc(C#N)c(NCC(C)C)o2)cc1 | inconclusive: 13.5% |  |
| CCOC(=O)c1sc(NC(=O)CN2CC(C)OC(C)C2)nc1C (centres undefined) | inconclusive: -44.1% |  |
| CC1CCc2sc(C(=O)NCC(C)(C)N3CCOCC3)cc2C1 (centres undefined) | inconclusive |  |
| N#CCCN(C(=O)COC(=O)C1=COCCO1)c1ccc(F)cc1 | inconclusive: -7.36% |  |
| O=C(CCn1c(=S)oc2ccccc21)NC1CCCCC1 | inconclusive: 40.7% |  |
| CCOc1cccc(NC(=O)C2CC(=O)N(C)C(=Nc3ccccc3)S2)c1 (centres undefined) |  | inconclusive: 5.17 µM [activator, partial curve] |
| CC(C)CCN1CN(S(=O)(=O)c2cccs2)c2nc3ccccc3nc21 |  | inconclusive: 3.66 µM [activator, partial curve] |
| CCC(Oc1ccccc1)C(=O)N1CCN(S(=O)(=O)c2ccccc2)CC1 (centres undefined) |  | inconclusive: 4.11 µM [activator, partial curve] |
| CCOc1c(Br)cc(CNc2ccc(N3CCOCC3)cc2)cc1OC | inactive: -18.5% |  |
| Cc1ccc(S(=O)(=O)C2(C(=O)NC3CCCCC3)CC2)cc1 | inconclusive: 69% |  |
| CC1CCCC(NC(=O)CCNC(=O)c2ccccc2Cl)C1C (centres undefined) | inconclusive |  |
| Cc1ccc(N(C)C(=O)CCNC(=O)Cn2cnc3ccccc3c2=O)cc1C |  | inconclusive: 0.0046 µM [falling, full curve, poor fit] |
| O=C(Cn1c(=O)c2cccn2c2ccccc21)NCc1cccc(F)c1 | inconclusive: -100% |  |
| COc1ccc(CNC(=O)Cn2cccc2C(=O)c2ccccc2)cc1 | inconclusive: 106% |  |
| O=C(NC1CC1)c1cccc(NC(=O)c2cn3ccccc3n2)c1 | inconclusive: 7.02% |  |
| COc1ccc(C)cc1S(=O)(=O)Nc1ccc(-n2c(C)nc3ccccc3c2=O)cc1 | inconclusive: -12.8% |  |
| CC(C)CN(C(=O)CCc1ccccc1)c1c(N)n(CC(C)C)c(=O)[nH]c1=O | inconclusive: 11.8% |  |
| Cc1ccc(N(CC(=O)NCC2CCCO2)S(=O)(=O)c2ccccc2)c(C)c1 (centres undefined) | inconclusive: -13.4% |  |
| COc1cc(CC(=O)Nc2nc(C)cs2)cc(OC)c1OC | inconclusive: -3.71% |  |
| O=C(Nc1nnc(SCCC2OCCO2)s1)C1CC(=O)N(c2ccc(F)cc2)C1 (centres undefined) | inconclusive: 48.8% |  |
| Cc1ccccc1NC(=O)Cc1nc(CSc2nnc(-c3ccc4c(c3)OCO4)o2)cs1 | inconclusive: 12.7% |  |
| Fc1cccc(/C=N/N=C/c2cccc(F)c2)c1 | inconclusive: 7.83% |  |
| Cc1cc(NC(=O)C2CC(=O)N(c3ccccc3C)C2)no1 (centres undefined) | inconclusive: 73.9% |  |
| Cc1cc(C(=O)N/N=C/c2cccc3ccccc23)c(C)o1 |  | inconclusive: 0.651 µM [falling, single point] |
| CCOC(=O)N1CCN(S(=O)(=O)CCNC(=O)c2ccc(F)cc2)CC1 | inconclusive: -0.0841% |  |
| Cc1sc(N(C(=O)CCc2ccccc2)c2ccc(C(=O)O)cc2)nc1-c1ccccc1 | inconclusive: 12% |  |

Arranged by length of the SMILES (high to low): part of the list above

| SMILES | lipid storage change, negative = inhibition | Potency |
| --- | --- | --- |
| O=C(Nc1nnc(SCCC2OCCO2)s1)C1CC(=O)N(c2ccc(F)cc2)C1 (centres undefined) | inconclusive: 48.8% |  |
| CC(C)CCN1CN(S(=O)(=O)c2cccs2)c2nc3ccccc3nc21 |  | inconclusive: 3.66 µM [activator, partial curve] |
| Cc1cc(NC(=O)C2CC(=O)N(c3ccccc3C)C2)no1 (centres undefined) | inconclusive: 73.9% |  |
| COc1cc(CC(=O)Nc2nc(C)cs2)cc(OC)c1OC | inconclusive: -3.71% |  |

Additional results:

| SMILES | lipid storage change, negative = inhibition | Potency |
| --- | --- | --- |
| Nc1ccn(CC(=O)NCCCc2ccccc2)c(=O)n1 |  | inconclusive: 0.0041 µM [activator, full curve, poor fit] |
| COc1ccc(/C(C)=N/NC(=O)c2ccccc2N)cc1 | inconclusive: 16.1% |  |
| Cc1ccc2nc(SCC(=O)Nc3ccc4c(c3)OCCO4)nc(=O)n2c1 | inconclusive |  |
| O=C(COc1ccccc1Cl)c1ccc[nH]1 | inconclusive: 12.9% |  |
| C/C(=N\NC(=O)c1ccco1)c1ccc(NC(=O)C(F)(F)F)cc1 |  | inconclusive: 1.84 µM [falling, partial curve, poor fit] |
| CC(C)(C)OC(=O)N1CCC(Cc2cc(-c3ccc(Cl)cc3)no2)(C(=O)O)CC1 |  | inconclusive: 23.1 µM [activator, single point] |
| COc1ccccc1CNC(=O)C(C)Oc1ccccc1 (centres undefined) | inconclusive: -20.1% |  |
| CCCn1c(=O)c(C(=O)Nc2cc(C)ccn2)c(O)c2ccccc21 | inconclusive: 30.1% |  |
| O=C(NCC1CCCCC1)C1(CC2CC(c3cccc(Br)c3)=NO2)CCNCC1 (centres undefined) | inconclusive: -14.3% |  |
| CC(C)C(NS(=O)(=O)c1cccc2nsnc12)C(=O)Nc1nc2ccc(Cl)cc2s1 (centres undefined) | inconclusive: 4.65% |  |
| CCCc1cc(=O)n2nc(N3CCC(C(=O)Nc4cccc(C(C)=O)c4)CC3)sc2n1 | inconclusive: -65.1% |  |
| COc1ccccc1OCC(=O)NNC(=O)C1CCN(c2ncnc3sc(C)c(C)c23)CC1 | inconclusive: 2.28% |  |
| Cc1onc(-c2c(Cl)cccc2Cl)c1C(=O)n1nnc2ccccc21 | inconclusive: -0.389% |  |
| CCCCCCOC(=O)C(C#N)c1nc2ccccc2nc1N1CCN(CC)CC1 (centres undefined) | inconclusive: -15.8% |  |
| Cc1[nH]c(C)c(S(=O)(=O)N2CCCCC2)c1C(=O)N1CCCCC1 |  | inconclusive: 29.1 µM [activator, single point] |
| O=S(=O)(Cc1cc(NCc2ccccc2)nc(-c2ccccn2)n1)c1ccccc1 | inconclusive: 21.4% |  |
| CCCCCCOC(=O)CCn1[nH]c(=O)c2ccccc2c1=O | inconclusive: 19.7% |  |
| COc1cc(OC)c(N2CC(C(=O)NCCC3=CCCCC3)CC2=O)cc1Cl (centres undefined) | inconclusive: 5.15% |  |
| O=C(N/N=C/c1ccc(O)cc1)c1cc(C23CC4CC(CC(C4)C2)C3)[nH]n1 | inconclusive: -25.8% |  |
| CN(C)c1nnnn1-c1ccc(Oc2ncc(C(F)(F)F)cc2Cl)cc1 | inconclusive: 15.2% |  |
| c1ccc2[nH]c(CCCc3nc4ccccc4[nH]3)nc2c1 | inconclusive: 23.3% |  |
| CC12CCC(O)CC1=CCC1C2CCC2(C)C1CCC21CCC(=O)O1 (centres undefined) | inconclusive: -26.6% |  |
| CC[C@H](C)[C@H](NC(N)=O)C(=O)NCCc1ccc(OC)c(OC)c1 | inconclusive: -24.7% |  |
| Cc1cc(C)c2nc(N3CCCN(C(=O)c4ccco4)CC3)c(C#N)cc2c1 | inconclusive: 0.37% |  |
| CC(Sc1ccccc1)C(=O)N1CCN(S(=O)(=O)c2ccc(Cl)cc2)CC1 (centres undefined) |  | inconclusive: 0.164 µM [activator, full curve] |
| CCN(CC(=O)NC(C)(C)C)C(=O)C(c1ccccc1)c1ccccc1 | inconclusive: -30% |  |
| O=C(COn1nnc2ccc(Cl)cc21)NC1CCS(=O)(=O)C1 (centres undefined) |  | inconclusive: 0.411 µM [activator, single point] |

| SMILES | lipid storage change, negative = inhibition | Potency |
| --- | --- | --- |
| Cc1ccn2cc(CCNS(=O)(=O)c3ccc([N+](=O)[O-])cc3)nc2c1 | inconclusive: 18.7% |  |
| COc1cc2c(C(=O)N3CCN(c4ccccc4C)CC3)c(C)oc2cc1Br |  | inconclusive: 2.91 µM [activator, full curve, poor fit] |
| Cc1cc(C(F)(F)F)nn1CC(=O)NNC(=S)Nc1ccc(Cl)cc1 | inconclusive: 11.6% |  |
| CCn1c(=O)cc(OCC(=O)N2CCCCCC2)c2ccccc21 |  | inconclusive: 25.9 µM [activator, partial curve, poor fit] |
| COc1ccccc1C(c1nnnn1CCc1ccccc1)N1CCCCCC1 (centres undefined) | inconclusive: 51.1% |  |
| Fc1ccccc1CNCC1CCCO1 (centres undefined) |  | inconclusive: 18.4 µM [falling, single point] |
| O=[N+]([O-])C1=CC=C2C(=NC3(CCCCC3)N2O)C1=NC1CCCCC1 | inconclusive: -18.4% |  |
| COc1ccc(/C=N/NC(=O)c2c([N+](=O)[O-])c(C)nn2C)cc1 | inconclusive: 30.4% |  |
| CCc1ccc(NS(=O)(=O)c2cc3c4c(c2)CCN4C(=O)CC3)cc1 | inconclusive: 21.2% |  |
| N#C/C(=C/c1cccc([N+](=O)[O-])c1)c1nnc2n1CCCCC2 |  | active: 2.59 µM |
| CCOC(=O)C1=C(c2ccccc2)OC(N)=C(C#N)C1c1cccs1 (centres undefined) | inconclusive: 268% |  |
| COc1ccc(CC(=O)Nc2nccs2)cc1OC |  | inconclusive: 10.3 µM [activator, partial curve] |
| Cc1c[nH]c2cccc(OCC(CNC(C)(C)C)OC(=O)c3ccccc3)c12 (centres undefined) |  | inconclusive: 29.1 µM [activator, single point] |
| O=C(CCCOc1ccccc1)N1CCN(S(=O)(=O)c2ccccc2)CC1 | inconclusive: 18.7% |  |
| CC(=O)c1cccc(NC(=O)CN2C(=S)NC(C)(C)CC2C)c1 (centres undefined) |  | inconclusive: 0.92 µM [falling, full curve, poor fit] |
| CCCS(=O)(=O)N1CCC(C(=O)NC2CCCC(C)C2C)CC1 (centres undefined) | inconclusive: -27.3% |  |
| CCSc1cc(N2CCCC2)nc(-c2ccc(F)cc2)n1 | inconclusive: 33.1% |  |
| Cc1[nH]n(-c2ccccc2)c(=O)c1N=Nc1c(O)cc(S(=O)(=O)N(C)C)c2ccccc12 | inconclusive: 23.5% |  |
| CC(Sc1nnnn1C)C(=O)Nc1ccccc1-c1ccccc1 (centres undefined) | inconclusive: 6.58% |  |
| CC(=O)Nc1c2c(nn1-c1cccc(Cl)c1)CS(=O)(=O)C2 | inconclusive: 54.2% |  |
| Cc1ccc2nc(SCC(=O)c3c(C)[nH]c4ccccc34)[nH]c2c1 |  | inconclusive: 29.1 µM [falling, single point] |
| O=C(Nc1ccccc1)Nc1ccccc1-n1ccnc1 | inconclusive: 26.4% |  |
| O=C(OCCO)c1cc(Cl)c(C(=O)OCCO)cc1Cl | inconclusive: -4.18% |  |
| O=C(C1CCN(S(=O)(=O)c2ccc(Cl)cc2)CC1)N1CCCC1 | inconclusive: -2.32% |  |
| O=C(CNC(=O)c1ccc(Br)cc1)NCC(=O)OCC(=O)c1ccccc1 | inconclusive: -1.41% |  |
